This passage reports cell number change and AC50 results from PubChem BioAssay AID2685 (National Center for Advancing Translational Sciences (NCATS), 2010).

Some of the results follow. The main result of the screen is listed elsewhere. These columns were measured beside it and carry no call. Most of these compounds were active or inconclusive in the main read-out, so they are no random draw. Words in brackets tell the shape of the fitted curve; partial curves, single points and poor fits give uncertain potencies.

The experiment is described as follows: qHTS Assay for Lipid Storage Modulators in Drosophila S3 Cells.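 As to cell number change: cells counted by Cell Tracker Red CMTPX staining in the red channel.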 Conditions: BODIPY lipid droplet fluorescence, 18-24 h; for cell number change: measured here: cell count max response, cells fed with added oleic acid. An outline of the steps:
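Drosophila S3 cells got compounds at several concentrations plus oleic acid (400 uM solution). Laser-scanning cytometry with 488 nm excitation read lipid droplets at 500-530 nm and cells at 575-640 nm. Percent activity was relative to 20 uM Triacsin C.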

Setting [1] is: measured here: cell number channel AC50, cells fed with added oleic acid.
[2] abbreviates: measured here: lipid fluorescence (Fed channel) AC50, cells fed with added oleic acid.

The AC50 is the concentration giving half of the maximal activity seen. The low end stands for activity at low concentration, the high end for activity only at high concentration. Turning to `COc1ccccc1CNC(=O)CSc1nc(=O)n(Cc2ccncc2)c2c1CCC2`, the cell number change came out at 121%. Moreover, the AC50 under setting [1] is 7.31 µM [falling, single point].

With `O=C1/C(=C/c2ccccc2F)SC(=S)N1CCC(=O)N1CCCCC1CCO` (stereo not drawn), the cell number change was -15.8%. In addition, the AC50 under setting [2] was 4.11 µM [falling, single point].

For `CCC(C)c1ccc(O)c(NC(=O)c2cccnc2)c1` (stereo not drawn), the cell number change worked out at 23.7%. In addition, under setting [1], the AC50 is 0.0184 µM [rising, full curve, poor fit]. Moreover, the AC50 under setting [2] was 0.58 µM [falling, single point].

As for `COc1cc2[nH]cc(C(=O)NCc3ccccc3)c(=O)c2cc1OC`, the cell number change was -1.31%. The AC50 under setting [2] was 14.6 µM [falling, partial curve].

In the case of `CC(C)NC(=O)CSc1ccccc1C(=O)NNC(=O)Cn1ccc(C(F)(F)F)n1`, the cell number change is 16.8%. In addition, the AC50 under setting [2] was 0.92 µM [rising, full curve, poor fit].

As for `CCc1ccc(NC(=O)Nc2ccc3c(c2)N(C)C(=O)CS3)cc1`, the cell number change is -48.6%. In addition, under setting [1], the AC50 was 29.1 µM [falling, single point]. For the same molecule, under setting [2], the AC50 is 6.51 µM [falling, partial curve].

Take `Nc1n[nH]c(=S)n1/N=C1/C(=O)Nc2ccccc21`: the cell number change is -29%. The AC50 under setting [1] was 0.0058 µM [falling, full curve].

As to `CCOC(=O)Cc1csc(NS(=O)(=O)c2cc(Cl)ccc2Cl)n1`, the cell number change is 15%. Also, the AC50 under setting [2] is 7.31 µM [rising, partial curve].

`COc1ccccc1NC(=O)CSc1nc2ccccc2nc1N1CC(C)OC(C)C1` (stereo not drawn): the cell number change was 14.7%. Further, the AC50 under setting [2] is 10.3 µM [rising, partial curve, poor fit].

Regarding `CC(=O)OCC(=O)Nc1c(C)cc(C)cc1C`, the AC50 under setting [2] was 0.651 µM [rising, single point].

Regarding `CC1(C)CC(=O)C(C=Nc2cccnc2/N=C/C2=C(O)CC(C)(C)CC2=O)=C(O)C1`, the cell number change was 16%. In addition, the AC50 under setting [1] was 0.82 µM [rising, full curve, poor fit]. Moreover, under setting [2], the AC50 was 0.651 µM [rising, full curve, poor fit].

`COc1cccc(OCc2cc(C(=O)N3CCNC(=O)C3Cc3ccccc3)no2)c1` (stereo not drawn): the cell number change is 24.4%.

Regarding `O=C(NC(=S)NCCCN1CCOCC1)c1cccc2ccccc12`, the cell number change was found to be 63.8%. Further, under setting [1], the AC50 is 18.4 µM [rising, single point].

As for `CSCCC(NC(N)=O)C(=O)NCc1ccc(Cl)cc1` (stereo not drawn), the cell number change turned out to be 33.5%.

`Cc1ccnc2nc(C(=O)OCC(=O)NC3CCC(C)CC3)nn12` (stereo not drawn): the cell number change was -10.9%.

`C/C(CCC(=O)OC[C@H]1O[C@H](C#Cc2ccccc2)C=C[C@@H]1Oc1ccc(C)cc1)=N\OC[C@@H](O)[C@H]1O[C@@H]2OC(C)(C)O[C@@H]2[C@H]1O`: the cell number change was -11.4%. For the same molecule, the half-maximal activity concentration (AC50) under setting [2] is 32.6 µM [rising, single point].

Turning to `COc1ccc(C)cc1Nc1nc(N)c2ccccc2n1`, the cell number change was -32.8%. For the same molecule, the AC50 under setting [1] was 25.9 µM [falling, single point].

Regarding `COc1ccccc1N1CCN(c2ncnc3sc(C(=O)NCC4CCCO4)c(C)c23)CC1` (stereo not drawn), the cell number change was -19.2%. Besides, the AC50 under setting [2] was 2.06 µM [falling, full curve].

With `CCC(C)c1ccc(NC(=O)N2CCN(C(=O)C3CCCO3)CC2)cc1` (stereo not drawn), the cell number change was 11%. In addition, the AC50 under setting [2] is 5.8 µM [falling, single point].

In the case of `CSCc1cc(N(C)c2ccccc2)nc(-c2ccccc2)n1`, the cell number change was 17.6%. Besides, the AC50 under setting [2] was 29.1 µM [rising, single point].

In the case of `CCC1Nc2ncnc(N3CCCCC3)c2N(Cc2ccccc2)C1=O` (stereo not drawn), the cell number change was 32.3%. The AC50 under setting [1] is 18.4 µM [rising, single point].

For the molecule `COc1ccc(-c2cc(C(=O)N3CCN(C(=O)c4ccccc4F)CC3)[nH]n2)cc1`, the cell number change came to 38.1%. Besides, the AC50 under setting [1] was 4.11 µM [rising, full curve].

Regarding `C=C(C)CNC(=S)N=Nc1c(O)[nH]c2ccc([N+](=O)[O-])cc12`, the AC50 under setting [1] is 0.103 µM [rising, partial curve, poor fit] and the AC50 under setting [2] is 0.116 µM [rising, single point].

`NC(=O)c1ccccc1NCC(=O)c1ccc(F)cc1`: the cell number change stood at 2.78%. Under setting [2], the half-maximal activity concentration (AC50) was 0.58 µM [falling, single point].

`CC(=O)N(C)c1ccc(NC(=O)COc2ccc(Br)cc2C)cc1`: the cell number change was -0.946%. For the same molecule, under setting [2], the AC50 is 11.6 µM [rising, partial curve].

For the molecule `COc1cccc(C2c3c(oc4ccc(Cl)cc4c3=O)C(=O)N2c2cc(C)on2)c1OC` (stereo not drawn), the cell number change is -7.3%.

For `CCOC(=O)c1c(C)[nH]c(C(=O)N/N=C/c2ccc(OC)c(OC)c2)c1C`, the cell number change is -5.66%. The AC50 under setting [2] was 0.411 µM [rising, partial curve, poor fit].

On to `CC(C)CN1CCNC(=O)C1CC(=O)NCCc1ccc(C(F)(F)F)cc1` (stereo not drawn), for which the cell number change is -16.5%.

Regarding `CN(NC1OC(=O)c2ccccc21)c1ccccc1[N+](=O)[O-]` (stereo not drawn), the cell number change was determined as 21.4%. For the same molecule, the AC50 under setting [1] is 2.31 µM [falling, single point]. The AC50 under setting [2] was 3.26 µM [falling, single point].

Regarding `NC(=O)CCCn1c(C(=O)c2ccc(Cl)cc2)c2ccc([N+](=O)[O-])cc2[n+]1[O-]`, the cell number change is -36.7%. The half-maximal activity concentration (AC50) under setting [1] is 3.66 µM [falling, full curve]. For the same molecule, the concentration at half-maximal activity (AC50) under setting [2] was 0.461 µM [falling, partial curve].

On to `CCN(CC(=O)Nc1ccccc1C(F)(F)F)C(=O)CCOc1ccc(C)cc1`, for which the cell number change was -27.3%. Under setting [2], the AC50 was 6.51 µM [falling, single point].

Regarding `CC(NC(=O)Nc1ccc(Cl)cc1)c1ccc2c(c1)OCO2` (stereo not drawn), the cell number change is -21.3%. Further, the AC50 under setting [1] is 0.651 µM [rising, full curve, poor fit].

As for `CCOCC(=O)Nc1ccc(S(=O)(=O)NCC2CCCO2)cc1` (stereo not drawn), the cell number change is 5.74%.

`O=C(Nc1ccc(OC(F)(F)F)cc1)C1CCCN(S(=O)(=O)c2cnc[nH]2)C1` (stereo not drawn): the cell number change was determined as 7.03%. Further, under setting [2], the AC50 is 29.1 µM [rising, single point].

`COc1ccc(C(=O)NCCCNC(=O)c2ccc(C)nc2)cc1`: the cell number change worked out at 14.8%. Moreover, the AC50 under setting [2] was 0.13 µM [falling, full curve, poor fit].

As to `Cc1cc(C(=O)COC(=O)c2cc(Cl)ccc2N)c(C)n1Cc1ccco1`, the cell number change was 32.9%.

Consider `COc1ccc(CCn2c(N3CCN(C)CC3)nc3c2c(=O)[nH]c(=O)n3C)cc1`, for which the cell number change was determined as 27%. For the same molecule, the AC50 under setting [2] is 6.51 µM [rising, single point].

Turning to `COc1cc(NC(=O)c2ccccc2)c(OC)cc1NC(=O)CN1C(=O)N(C)C2(CCCCC2)C1=O`, the cell number change was 24.5%.

`Cc1cc(NC(=O)CSc2nc(-c3ccccc3Cl)nc3c2c(=O)n(C)c(=O)n3C)no1`: the cell number change was -23%.

For the molecule `CCCCNC(=O)OCC(CC)NC(=O)OC(C)C` (stereo not drawn), the cell number change was -25.7%. For the same molecule, the AC50 under setting [1] was 4.11 µM [falling, full curve, poor fit]. Besides, under setting [2], the AC50 is 1.03 µM [falling, full curve].

As to `O=C(N/N=C\c1c(O)ccc2ccccc12)c1ccc(Cn2cccn2)o1`, the cell number change is -18.9%. In addition, under setting [1], the AC50 was 0.0259 µM [falling, full curve, poor fit]. Besides, under setting [2], the AC50 is 0.13 µM [falling, full curve].

Turning to `CC(Oc1ccc(Br)cc1)C(=O)NCC1(N2CCCCC2)CCCCC1` (stereo not drawn), the cell number change was -22.6%. In addition, the AC50 under setting [1] is 0.164 µM [falling, full curve, poor fit].

For `O=C(NCCCN1CCN(c2cccc(Cl)c2)CC1)C1CCC(=O)N1Cc1ccccc1Cl` (stereo not drawn), the cell number change is -29.7%.

Regarding `Nc1nc(SCC(=O)NCCCN2CCOCC2)nc2sc3c(c12)CCC3`, the cell number change is -20.7%. The AC50 under setting [2] is 6.51 µM [falling, single point].

Turning to `c1ccc(-c2csc(N3CCN(c4ccccn4)CC3)n2)cc1`, the cell number change was -32.1%. In addition, the AC50 under setting [1] is 13 µM [falling, partial curve, poor fit]. Besides, under setting [2], the AC50 was 1.16 µM [rising, single point].

With `COC(=O)CSc1ncnc2c1sc1nc(N3CCOCC3)c3c(c12)CCCC3`, the cell number change came to 5.18%. Moreover, the AC50 under setting [2] was 16.4 µM [rising, single point].

Turning to `COCCCNC(=S)N/N=C/c1ccccc1O`, the cell number change was determined as 18.9%. For the same molecule, the AC50 under setting [2] was 0.517 µM [falling, single point].

Take `Cc1ccc(N)cc1CN1CCCC1=O`: the cell number change came out at 19.1%. Also, the AC50 under setting [2] was 20.6 µM [rising, single point].

Consider `COc1ccc(OC)c(C(c2nnnn2C(C)(C)C)N2CCc3ccccc3C2)c1` (stereo not drawn), for which the AC50 under setting [2] is 29.1 µM [rising, partial curve, poor fit].

Regarding `O=C(c1ccc(F)cc1)c1ccc(N2CCCC2)cc1`, the cell number change stood at 12.2%.

Turning to `C=CCn1c(=S)[nH]c2ccc(Br)cc2c1=O`, the cell number change is -19.5%. Besides, the AC50 under setting [2] was 1.84 µM [rising, partial curve].

For `Cc1ccc2nc3c(cc(C(=O)NCCc4ccccc4)c(=N)n3CC3CCCO3)c(=O)n2c1` (stereo not drawn), the cell number change stood at 11.7%. Further, the AC50 under setting [2] is 6.51 µM [falling, single point].

For the molecule `CC1CCN(C(=O)CSCc2ccc(Cl)cc2)CC1`, the cell number change was determined as 3.72%.

As for `COc1ccc(N2CCN(C(=O)COC(=O)CCOc3ccc(C(C)(C)C)cc3)CC2)cc1`, the AC50 under setting [1] is 1.46 µM [falling, full curve, poor fit].

On to `O=C(COc1coc(CN2CCN(c3ccc(F)cc3)CC2)cc1=O)NCC1CCCO1` (stereo not drawn), for which the cell number change was 32.3%. Also, the AC50 under setting [1] is 16.4 µM [rising, single point].

On to `Cc1ccc(C(=O)NNC(=O)CSc2nnc(-c3ccccc3)n2Cc2ccccc2)cc1`, for which the cell number change amounted to 8.48%. In addition, under setting [2], the AC50 was 3.66 µM [rising, single point].

In the case of `CCCn1nc(C(=O)N2CC(=O)Nc3ccccc32)c2ccccc2c1=O`, the cell number change is -14.6%.

Turning to `COCCCN1C(=O)C(O)=C(C(=O)c2ccco2)C1c1ccc(Br)cc1` (stereo not drawn), the cell number change came out at 15.7%. Under setting [2], the AC50 was 0.517 µM [falling, single point].

`COc1cccc(C(C(=O)NC(C)(C)C)N(Cc2ccc(C)cc2)C(=O)CCC(=O)Nc2cc(C)on2)c1OC` (stereo not drawn): the cell number change turned out to be 12.1%. Further, under setting [2], the AC50 is 0.82 µM [rising, full curve].

`CCS(=O)(=O)c1ccc2oc(=O)c(/C=C(\O)c3ccc(Cl)cc3)nc2c1`: the AC50 under setting [2] was 6.51 µM [falling, single point].

For the molecule `CN(C(=O)C1CCN(S(=O)(=O)c2cccs2)CC1)C1CCCCC1`, the cell number change was 5.58%.

As for `c1ccc(-n2ncc3c2ncn2nc(-c4ccco4)nc32)cc1`, the cell number change turned out to be 0.295%.
